The values that follow come from publication doi:10.1101/2024.02.14.580406.

Sequences of proteins named here, by UniProt entry; tags and fusion partners are left off.
UniProt Q9H792: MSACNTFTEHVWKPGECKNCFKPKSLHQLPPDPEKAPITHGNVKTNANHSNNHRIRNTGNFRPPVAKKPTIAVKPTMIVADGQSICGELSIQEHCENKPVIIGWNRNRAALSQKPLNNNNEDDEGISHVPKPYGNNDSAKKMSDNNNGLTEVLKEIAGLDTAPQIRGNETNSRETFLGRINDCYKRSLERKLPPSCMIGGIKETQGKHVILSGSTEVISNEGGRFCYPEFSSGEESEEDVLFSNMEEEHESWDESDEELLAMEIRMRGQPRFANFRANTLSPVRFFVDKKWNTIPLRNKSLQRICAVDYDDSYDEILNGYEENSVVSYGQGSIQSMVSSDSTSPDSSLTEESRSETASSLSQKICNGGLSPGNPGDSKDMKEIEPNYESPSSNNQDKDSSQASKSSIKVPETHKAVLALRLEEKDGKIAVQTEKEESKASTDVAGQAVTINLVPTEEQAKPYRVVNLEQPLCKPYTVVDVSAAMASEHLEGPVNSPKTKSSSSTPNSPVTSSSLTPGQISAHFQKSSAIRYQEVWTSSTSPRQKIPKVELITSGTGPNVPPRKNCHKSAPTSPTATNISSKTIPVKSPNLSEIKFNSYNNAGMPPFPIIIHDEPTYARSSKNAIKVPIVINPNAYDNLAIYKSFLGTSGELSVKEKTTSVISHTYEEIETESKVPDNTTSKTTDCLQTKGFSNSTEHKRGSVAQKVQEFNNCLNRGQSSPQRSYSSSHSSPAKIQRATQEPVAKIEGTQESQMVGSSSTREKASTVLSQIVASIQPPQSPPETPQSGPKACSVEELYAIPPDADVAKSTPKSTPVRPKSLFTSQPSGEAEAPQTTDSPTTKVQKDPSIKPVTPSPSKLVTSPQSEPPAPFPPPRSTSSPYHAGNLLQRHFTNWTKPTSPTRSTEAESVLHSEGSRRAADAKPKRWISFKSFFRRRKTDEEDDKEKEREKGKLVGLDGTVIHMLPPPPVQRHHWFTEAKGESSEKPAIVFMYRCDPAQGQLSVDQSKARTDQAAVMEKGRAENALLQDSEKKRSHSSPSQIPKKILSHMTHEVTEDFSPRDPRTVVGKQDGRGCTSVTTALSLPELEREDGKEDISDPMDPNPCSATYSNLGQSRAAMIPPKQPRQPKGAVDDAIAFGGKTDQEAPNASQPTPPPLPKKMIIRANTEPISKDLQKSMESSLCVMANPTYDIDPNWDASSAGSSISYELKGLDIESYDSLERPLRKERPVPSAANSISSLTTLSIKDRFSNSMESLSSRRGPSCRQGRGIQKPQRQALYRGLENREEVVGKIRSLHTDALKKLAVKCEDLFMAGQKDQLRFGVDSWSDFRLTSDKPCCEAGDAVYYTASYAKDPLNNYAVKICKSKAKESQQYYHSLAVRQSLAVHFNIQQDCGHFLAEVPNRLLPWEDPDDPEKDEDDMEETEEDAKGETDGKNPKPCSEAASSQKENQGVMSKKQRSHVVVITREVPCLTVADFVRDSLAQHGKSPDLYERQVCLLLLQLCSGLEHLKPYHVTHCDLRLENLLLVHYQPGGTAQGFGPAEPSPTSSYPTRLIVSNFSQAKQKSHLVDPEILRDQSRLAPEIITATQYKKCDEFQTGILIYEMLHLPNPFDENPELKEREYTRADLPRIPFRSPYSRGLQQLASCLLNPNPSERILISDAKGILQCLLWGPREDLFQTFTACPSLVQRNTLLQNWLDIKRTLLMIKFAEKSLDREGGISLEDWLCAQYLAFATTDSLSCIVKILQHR

Results are given in words; binding and its absence hold for the method and conditions named. Binding seen in cells or lysates may run through a third protein. Some results given as binding are weak or reduced against the parent protein; the word gives no strength. For some assays here: Tags and fused reporters may be left off the sequences shown.

Test [1] concerns the target T1, V1- or V2-labeled fusion of PEAK2 (UniProt Q86YV5).
T1 sequence: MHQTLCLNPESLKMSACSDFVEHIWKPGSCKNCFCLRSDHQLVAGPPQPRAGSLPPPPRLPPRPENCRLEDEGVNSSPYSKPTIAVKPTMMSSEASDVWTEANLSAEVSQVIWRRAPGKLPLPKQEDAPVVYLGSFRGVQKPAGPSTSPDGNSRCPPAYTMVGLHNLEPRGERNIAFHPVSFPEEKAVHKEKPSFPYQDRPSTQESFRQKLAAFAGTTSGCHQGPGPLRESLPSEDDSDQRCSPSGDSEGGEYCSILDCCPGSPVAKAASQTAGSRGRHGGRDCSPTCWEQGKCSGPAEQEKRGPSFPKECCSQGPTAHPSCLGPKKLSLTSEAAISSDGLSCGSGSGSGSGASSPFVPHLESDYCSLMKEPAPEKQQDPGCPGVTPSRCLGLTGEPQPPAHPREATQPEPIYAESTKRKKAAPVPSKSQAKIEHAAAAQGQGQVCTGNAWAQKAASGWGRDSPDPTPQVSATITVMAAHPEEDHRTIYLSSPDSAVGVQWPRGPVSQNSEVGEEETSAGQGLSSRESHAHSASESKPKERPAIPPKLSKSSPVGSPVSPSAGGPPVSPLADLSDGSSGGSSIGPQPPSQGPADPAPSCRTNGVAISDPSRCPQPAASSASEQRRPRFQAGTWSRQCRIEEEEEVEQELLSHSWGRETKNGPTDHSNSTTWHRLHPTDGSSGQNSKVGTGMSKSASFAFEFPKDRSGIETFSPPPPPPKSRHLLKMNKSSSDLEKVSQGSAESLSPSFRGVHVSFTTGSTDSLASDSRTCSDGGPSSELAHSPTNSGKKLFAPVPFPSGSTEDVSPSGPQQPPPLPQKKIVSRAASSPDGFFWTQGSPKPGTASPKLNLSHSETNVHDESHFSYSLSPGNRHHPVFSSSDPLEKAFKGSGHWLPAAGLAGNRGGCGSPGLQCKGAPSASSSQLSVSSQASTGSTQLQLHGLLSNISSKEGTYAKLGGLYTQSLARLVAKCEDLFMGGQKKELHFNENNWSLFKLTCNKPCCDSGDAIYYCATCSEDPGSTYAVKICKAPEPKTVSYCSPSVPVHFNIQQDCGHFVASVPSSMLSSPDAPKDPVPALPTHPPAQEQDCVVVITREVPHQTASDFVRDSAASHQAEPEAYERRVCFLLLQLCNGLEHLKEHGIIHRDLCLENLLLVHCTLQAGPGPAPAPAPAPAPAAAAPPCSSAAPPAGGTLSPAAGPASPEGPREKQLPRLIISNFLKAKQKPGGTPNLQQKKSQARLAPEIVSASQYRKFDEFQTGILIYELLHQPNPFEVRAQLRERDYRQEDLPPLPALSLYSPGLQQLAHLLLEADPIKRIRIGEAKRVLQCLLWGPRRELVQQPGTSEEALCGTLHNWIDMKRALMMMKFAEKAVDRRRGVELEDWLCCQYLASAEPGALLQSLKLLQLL
Nature of the test: split reporter.

Test [2] addresses Flag-tagged PEAK1, wildtype (human) (UniProt Q9H792). Nature of the test: co-IP.

B1: V1- or V2-labeled fusion of PEAK2 (protein, UniProt Q86YV5 1-1406)
chain: MHQTLCLNPESLKMSACSDFVEHIWKPGSCKNCFCLRSDHQLVAGPPQPRAGSLPPPPRLPPRPENCRLEDEGVNSSPYSKPTIAVKPTMMSSEASDVWTEANLSAEVSQVIWRRAPGKLPLPKQEDAPVVYLGSFRGVQKPAGPSTSPDGNSRCPPAYTMVGLHNLEPRGERNIAFHPVSFPEEKAVHKEKPSFPYQDRPSTQESFRQKLAAFAGTTSGCHQGPGPLRESLPSEDDSDQRCSPSGDSEGGEYCSILDCCPGSPVAKAASQTAGSRGRHGGRDCSPTCWEQGKCSGPAEQEKRGPSFPKECCSQGPTAHPSCLGPKKLSLTSEAAISSDGLSCGSGSGSGSGASSPFVPHLESDYCSLMKEPAPEKQQDPGCPGVTPSRCLGLTGEPQPPAHPREATQPEPIYAESTKRKKAAPVPSKSQAKIEHAAAAQGQGQVCTGNAWAQKAASGWGRDSPDPTPQVSATITVMAAHPEEDHRTIYLSSPDSAVGVQWPRGPVSQNSEVGEEETSAGQGLSSRESHAHSASESKPKERPAIPPKLSKSSPVGSPVSPSAGGPPVSPLADLSDGSSGGSSIGPQPPSQGPADPAPSCRTNGVAISDPSRCPQPAASSASEQRRPRFQAGTWSRQCRIEEEEEVEQELLSHSWGRETKNGPTDHSNSTTWHRLHPTDGSSGQNSKVGTGMSKSASFAFEFPKDRSGIETFSPPPPPPKSRHLLKMNKSSSDLEKVSQGSAESLSPSFRGVHVSFTTGSTDSLASDSRTCSDGGPSSELAHSPTNSGKKLFAPVPFPSGSTEDVSPSGPQQPPPLPQKKIVSRAASSPDGFFWTQGSPKPGTASPKLNLSHSETNVHDESHFSYSLSPGNRHHPVFSSSDPLEKAFKGSGHWLPAAGLAGNRGGCGSPGLQCKGAPSASSSQLSVSSQASTGSTQLQLHGLLSNISSKEGTYAKLGGLYTQSLARLVAKCEDLFMGGQKKELHFNENNWSLFKLTCNKPCCDSGDAIYYCATCSEDPGSTYAVKICKAPEPKTVSYCSPSVPVHFNIQQDCGHFVASVPSSMLSSPDAPKDPVPALPTHPPAQEQDCVVVITREVPHQTASDFVRDSAASHQAEPEAYERRVCFLLLQLCNGLEHLKEHGIIHRDLCLENLLLVHCTLQAGPGPAPAPAPAPAPAAAAPPCSSAAPPAGGTLSPAAGPASPEGPREKQLPRLIISNFLKAKQKPGGTPNLQQKKSQARLAPEIVSASQYRKFDEFQTGILIYELLHQPNPFEVRAQLRERDYRQEDLPPLPALSLYSPGLQQLAHLLLEADPIKRIRIGEAKRVLQCLLWGPRRELVQQPGTSEEALCGTLHNWIDMKRALMMMKFAEKAVDRRRGVELEDWLCCQYLASAEPGALLQSLKLLQLL
As to B1, the binding entry in test [1] was “binds”.

B2: endogenous PEAK2 (protein, UniProt Q86YV5 1-1406)
chain: MHQTLCLNPESLKMSACSDFVEHIWKPGSCKNCFCLRSDHQLVAGPPQPRAGSLPPPPRLPPRPENCRLEDEGVNSSPYSKPTIAVKPTMMSSEASDVWTEANLSAEVSQVIWRRAPGKLPLPKQEDAPVVYLGSFRGVQKPAGPSTSPDGNSRCPPAYTMVGLHNLEPRGERNIAFHPVSFPEEKAVHKEKPSFPYQDRPSTQESFRQKLAAFAGTTSGCHQGPGPLRESLPSEDDSDQRCSPSGDSEGGEYCSILDCCPGSPVAKAASQTAGSRGRHGGRDCSPTCWEQGKCSGPAEQEKRGPSFPKECCSQGPTAHPSCLGPKKLSLTSEAAISSDGLSCGSGSGSGSGASSPFVPHLESDYCSLMKEPAPEKQQDPGCPGVTPSRCLGLTGEPQPPAHPREATQPEPIYAESTKRKKAAPVPSKSQAKIEHAAAAQGQGQVCTGNAWAQKAASGWGRDSPDPTPQVSATITVMAAHPEEDHRTIYLSSPDSAVGVQWPRGPVSQNSEVGEEETSAGQGLSSRESHAHSASESKPKERPAIPPKLSKSSPVGSPVSPSAGGPPVSPLADLSDGSSGGSSIGPQPPSQGPADPAPSCRTNGVAISDPSRCPQPAASSASEQRRPRFQAGTWSRQCRIEEEEEVEQELLSHSWGRETKNGPTDHSNSTTWHRLHPTDGSSGQNSKVGTGMSKSASFAFEFPKDRSGIETFSPPPPPPKSRHLLKMNKSSSDLEKVSQGSAESLSPSFRGVHVSFTTGSTDSLASDSRTCSDGGPSSELAHSPTNSGKKLFAPVPFPSGSTEDVSPSGPQQPPPLPQKKIVSRAASSPDGFFWTQGSPKPGTASPKLNLSHSETNVHDESHFSYSLSPGNRHHPVFSSSDPLEKAFKGSGHWLPAAGLAGNRGGCGSPGLQCKGAPSASSSQLSVSSQASTGSTQLQLHGLLSNISSKEGTYAKLGGLYTQSLARLVAKCEDLFMGGQKKELHFNENNWSLFKLTCNKPCCDSGDAIYYCATCSEDPGSTYAVKICKAPEPKTVSYCSPSVPVHFNIQQDCGHFVASVPSSMLSSPDAPKDPVPALPTHPPAQEQDCVVVITREVPHQTASDFVRDSAASHQAEPEAYERRVCFLLLQLCNGLEHLKEHGIIHRDLCLENLLLVHCTLQAGPGPAPAPAPAPAPAAAAPPCSSAAPPAGGTLSPAAGPASPEGPREKQLPRLIISNFLKAKQKPGGTPNLQQKKSQARLAPEIVSASQYRKFDEFQTGILIYELLHQPNPFEVRAQLRERDYRQEDLPPLPALSLYSPGLQQLAHLLLEADPIKRIRIGEAKRVLQCLLWGPRRELVQQPGTSEEALCGTLHNWIDMKRALMMMKFAEKAVDRRRGVELEDWLCCQYLASAEPGALLQSLKLLQLL
Turning to B2, the binding result in test [2] is on record as “binds”.
